Screen size: about 53,000 sequences; about 3,700 (7%) were called active.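 How the source made its calls: active means gene knockdowns whose robust z-score for IL-1 alpha signal is at least 2 or at most -2, so actives lie on both sides; inactive means the rest.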 This is one part of the list.
Assay: Components of the Cytosolic LPS Sensing Pathway: Gene Identification via Genome-wide siRNA Screen;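 further: robust z of the log signal after scaling to non-targeting control siRNA wells of the plate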
Conditions: RAW264.7 macrophages, IL-1a HTRF, actives lie on both sides, screened at 100 nM (by protocol), cells primed 5 h with Pam3CSK4 first
Method in brief: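 Supernatant IL-1a by HTRF from RAW264.7 cells primed with Pam3CSK4 (5 hours) and transfected with LipidA (24 hour) after 48h siRNA knockdown at 100 nM; cell viability checked with CellTiter-Glo.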

Row | Sequence | z-score
1 | GGGUAGUAGCCUUCUUAUCTT against Olfr1168 | inactive: -0.414
2 | GGCAAUAAUAAAGUCCAUCTT against Letm2 | inactive: -0.26
3 | CGUGAUGUGGUAUUGGAACTT against Ampd2 | inactive: 0.0258
4 | GAACUUCUUCUGGAAAACCTT against Cort | inactive: -0.149
5 | GGCUAAGGAAAUUUUAACGTT against Ppp2cb | inactive: -1.18
6 | CCUUCAAAGUAACUCUUAGTT against Zfp697 | inactive: 1.22
7 | GGCGUGCUCUGACACAAAATT against Rnf227 | inactive: 0.39
8 | CCAUGAAAAGUGUGAAUGCTT against Fap | inactive: -0.276
9 | CCUGUCAGUUAACAUUUGATT against Acadsb | inactive: -0.759
10 | GCUAUAGGAACCUUCAGAGTT against Hbegf | inactive: 0.918
11 | GGGCUGUGAGCUCUGUUCATT against Rspo1 | inactive: 0.188
12 | GGGUUUUAUCAGCUAAAAATT against Plppr4 | active: 2.29
13 | GGGAAGAGUCUUGUUUAAATT against Nectin3 | inactive: -0.273
14 | GGGAACAAAUGUUUCAUUGTT against Mfap3 | inactive: 1.14
15 | GGGACCUGUUUCUAUCCUGTT against Tmem270 | inactive: 1.2
16 | GGAAGACAAUGAUGAUGUUTT against Clns1a | inactive: -1.82
17 | GGAAAUUAAAGACCAGUAGTT against 2810025M15Rik | inactive: -0.697
18 | CGACGAAGAUAUUUACAGUTT against Vav1 | inactive: 0.504
19 | GCCAGUUCAUACAAGAGGGTT against Zfp946 | inactive: 0.623
20 | GGGCCACCCAAAAUAACUCTT against Tesmin | inactive: 0.283
21 | GGCUUACCUACAACAAGUUTT against Ccnt1 | active: -2.07
22 | GGGUGAAAAUUCUUACUUGTT against Toe1 | inactive: -0.844

Row | Sequence | z-score
23 | GCCAGAACCCGUCUUUUCATT against Ccpg1 | inactive: 0.141
24 | GGAAAGGCAAAUACCAAGCTT against Ddx25 | inactive: -1.78
25 | GCAAUGUGGGUUAUUAUUUTT against Olfr963 | inactive: -1.13
26 | GCACCUUCAACCAACAAGGTT against Dph3 | inactive: -0.311
27 | GGACCAGUUUGAGUAUGAGTT against Tmem11 | inactive: -1.58
28 | GGAGAAUUCCAAUUUUAGGTT against Pcdhb14 | inactive: 0.121
29 | GGCAUCUUCAUGUACUUGCTT against Olfr1445 | inactive: 1.5
30 | GGAGUUUACGGCUAUUGACTT against Adap2 | inactive: -0.884
31 | CCAGGAUUCCGACUGAAUCTT against Oscp1 | inactive: -0.367
32 | GCUGGUAGGAAGUCCAAAATT against Knop1 | inactive: 0.115
33 | GGCUGGUUACCUGCAUAAGTT against Sh3bp2 | inactive: 0.225
34 | GGUUUUAUUUGGGAUUAGCTT against Arfgap2 | inactive: 0.327
35 | CCGUGUAAACCUGGCAUCATT against Znhit1 | inactive: -0.641
36 | CCAUUGUCAAGUCAAGAGCTT against 4933440M02Rik | inactive: -1.63
37 | GGUGAAAGUGAGAAGGAAGTT against Pimreg | inactive: 0.0325
38 | GGACAAUUUACACGACCAGTT against Folr1 | inactive: -1.66
39 | GGAUUAUGAUUUGCCUGAUTT against 4932414N04Rik | inactive: 1.05
40 | GGUCGCCUAUUUCAAGAUATT against P3h1 | inactive: -0.238
41 | GCAAAUUAGGCUCUUAUCCTT against 4930402H24Rik | inactive: -0.333
42 | GGGAGAGGGAACAUUCAAGTT against C1ql2 | inactive: 0.823
43 | GUGAAGUCUUCAGCAGUCUTT against Sprr2f | inactive: 0.31
44 | GGAAGCAGUACCUUCAUCGTT against Mul1 | inactive: 1.66

Row | Sequence | z-score
45 | CCUAACACUAGUCUCAGAATT against Olfr873 | inactive: 0.192
46 | GGUGCAGAGGAUCUACUAATT against Marchf5 | inactive: 1.87
47 | GGAACUUUGUCAUCAGUGGTT against Zkscan1 | inactive: -1.83
48 | GGCACUAAUUUCACUCUUCTT against Tenm4 | inactive: 0.223
49 | GCAUAGGCCUUAGUUCUGCTT against Jpt2 | inactive: -0.666
50 | GCCACUUUCUGGUUUUGUATT against Tas2r126 | inactive: -0.171
51 | GGGUUAAUUCCAGAAACUATT against Synb | inactive: -0.0547
52 | CGGAUACCGUAGUUUGGUGTT against Lipe | inactive: 1.51
53 | GCCCAGCCUACUAACAACCTT against Plxnb1 | inactive: 0.568
54 | GGAUAUGGAGAGAGAUUUATT against 1700102P08Rik | inactive: 0.0896
55 | CCAGUGUUGUUCUGUAAAUTT against Cep41 | inactive: 0.958
56 | GCGGAGGUCACGUUUACAUTT against Crebbp | inactive: -1.34
57 | GGCAGUGAAUCUCAAAUCCTT against Jam3 | inactive: -0.424
58 | GGCCUGCCUUUUUAUCUUGTT against Rrs1 | inactive: 1.9
59 | GGCGAUUCUGGCUCUCUUUTT against Commd9 | inactive: 1.28
60 | CCUUGCCAUAAGUGAUUUATT against Npffr2 | inactive: 0.876
61 | GGGAAAUCUCUGUUGGACATT against Akr1c13 | inactive: -1.17
62 | GGAAGUUCUAGAAAGGUUGTT against Tapbp | inactive: 0.575
63 | GAGAGUAAAGAGCCGUUCUTT against Ly6i | inactive: 0.105
64 | GCUCUGGUGAAUCCAUUGATT against Mid2 | inactive: 0.122
65 | GGCAAACCUUCUCUAAUUUTT against Nif3l1 | inactive: -0.251
66 | GGUUCAAAACUACACACACTT against Sp9 | inactive: 0.512

Some values from the entries so far.
GAGAGUAAAGAGCCGUUCUTT against Ly6i | z-score: inactive: 0.105
CCUGUCAGUUAACAUUUGATT against Acadsb | z-score: inactive: -0.759
CCUUGCCAUAAGUGAUUUATT against Npffr2 | z-score: inactive: 0.876
GCAAUGUGGGUUAUUAUUUTT against Olfr963 | z-score: inactive: -1.13
GGACAAUUUACACGACCAGTT against Folr1 | z-score: inactive: -1.66

Next part

Row | Sequence | z-score
67 | CGAGGAAUAGAUUUUUUGATT against Twistnb | inactive: -0.538
68 | GGCAACUGGAGAUGUGUGUTT against Lpgat1 | inactive: -0.361
69 | GGAACAAGAAGAAGAAAAATT against Slco3a1 | inactive: -1.03
70 | CGAUUUAUCUCAGACUUCATT against Lax1 | inactive: 1.73
71 | CGAUAAGGAAGAGCGGAUCTT against Epn1 | inactive: -0.127
72 | GGCAAUCAGGUUGACAGAUTT against Aadacl2fm1 | inactive: 0.694
73 | GGAGUAAAUAAGGACAUUGTT against Pcdha3 | inactive: 0.836
74 | GCCACUGGUUCACCAUGCATT against Ugt1a9 | inactive: -0.52
75 | GGUACCUGUUAAAUGUUACTT against Arl14ep | inactive: -0.171
76 | GGUCGAGUUCACGGACUCUTT against Pitx2 | inactive: -1.32
77 | CCGGCAUUACCGAUCGUAATT against Epcam | inactive: -1.13
78 | GGCUACUGUUGCUGCAUUUTT against Lin7c | active: -2.49
79 | GCGCGAGCAUUACAUAACUTT against Ccdc151 | inactive: 0.333
80 | GGUCCCUUUUGCUAAAACATT against Ppp1r26 | inactive: 0.418
81 | GGCAUGAACACUGAGGAGUTT against B4galnt4 | inactive: 1.11
82 | GGCUCAAGCGAAAAGCAGATT against Serping1 | inactive: -0.46
83 | GGUCCUCAACUACAUUUUUTT against Prl5a1 | inactive: 0.0222
84 | GGAUGAAGAGGAUUCAUUGTT against Pde4a | inactive: 1.1
85 | GGGAAUCAUGAUAUGUUUCTT against Tmem186 | inactive: -0.217
86 | GAAAUGGAACGGUGCCACATT against Defb9 | inactive: 0.669
87 | CCCAAUUAGGCUAUGCUAATT against Amfr | active: 2.27
88 | GCAAAUUGUCAACAUACUUTT against Slc3a2 | inactive: 1.48

Row | Sequence | z-score
89 | GGCGACAAGCAACUUAUAATT against Mgat4c | active: 3.25
90 | GGCAAAAGGCACUUUUGGATT against Cep295nl | inactive: -1.13
91 | GCCCUUAUUUACUAACAUCTT against 1500015L24Rik | inactive: -1.26
92 | CCAAGGCCAUCUCAUUUUCTT against Olfr749 | inactive: 0.511
93 | GGCAUAUAGAAACUGGUAATT against Npy6r | inactive: -0.316
94 | GGAUUUGCCUUAAAAAAUCTT against Dock4 | inactive: -0.0352
95 | GGUUCAGCUAAAGGAUUUATT against Sbno1 | inactive: 0.221
96 | CGUCAAUAAUCUAUAUAGCTT against Blm | inactive: 0.43
97 | GGUGAUAAAAGAUUAGAAGTT against Nckipsd | inactive: -0.128
98 | GGUUUAUGAGGAAAAGAAGTT against Svs6 | inactive: -1.56
99 | GGCACCUUAAUGCUGACUUTT against Sdc4 | inactive: -0.694
100 | GCUUAUAAAAGACUUACUGTT against Sec24b | inactive: 0.414
101 | GGCACAGAACAUUUAAUUGTT against Mefv | inactive: 0.167
102 | GGAAAACAGAAAUGGUUUATT against Slc39a10 | inactive: -0.0433
103 | GGCCGACCUUUCUAUCAAUTT against Rasip1 | inactive: -0.0174
104 | GCUCUUUCCCGACAUUCCCTT against Nans | inactive: -1.26
105 | GGGAAAUUUUCUGACAAGUTT against A730020M07Rik | inactive: -1.29
106 | GGAGAUUGUGCCAUCCAUGTT against Ccnd1 | inactive: -0.754
